{
  "source": "patent US12485079B2",
  "about": "“Compositions and methods relating to pigmentation” (Alastin Skincare, Inc., priority 2020, dated 2025)",
  "origin": "cited, not measured here",
  "tested_on": "tyrosinase",
  "conditions": "cited from earlier work",
  "note": "At least one compound was matched to its structure with a doubt left.",
  "data": [
    {"compound": "C/C=C1/[C@H](O[C@@H]2O[C@H](CO)[C@@H](O)[C@H](O)[C@H]2O)OC=C(C(=O)OC)[C@H]1CC(=O)OCCc1ccc(O)c(O)c1", "note": "[Oleuropein]", "values": [
      {"measurement": "tyrosinase inhibitory activity", "value": 90, "unit": "%"},
      {"measurement": "inhibition type", "setting": "tyrosinase", "value": "non-competitive competition"}
    ]}
  ]
}
